# Results are given in words; binding and its absence hold for the method and conditions named. Binding can be weak; no strength is given.
# The chains behind the UniProt entries cited, without tags or fusion partners. Where a name states a change or a piece, a line headed by the entry shows the natural chain unless it says otherwise.
# UniProt Q9XER7: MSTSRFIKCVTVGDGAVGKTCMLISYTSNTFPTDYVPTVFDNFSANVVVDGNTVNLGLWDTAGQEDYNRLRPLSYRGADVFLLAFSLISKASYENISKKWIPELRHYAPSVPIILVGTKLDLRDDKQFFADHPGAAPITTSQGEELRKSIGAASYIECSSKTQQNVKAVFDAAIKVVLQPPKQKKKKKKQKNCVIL
# Target: MBP-PpRopGAP1 (wild type) (Physcomitrium patens)
# Test: pull-down; amylose resin loaded with wild-type or mutated MBP-PpRopGAP1, incubated with equal amounts of purified GST-PpROP4 forms for four hours; GST-PpROP4 stained with Coomassie blue; both purified
substance,measurement,value
GST-PpROP4 (wild type) (from UniProt Q9XER7),binding,binds weakly
